Measurements reported in patent US5420288A, “Electroluminescent device comprising oxadiazole compounds luminescent material, oxadiazole compounds for the device, and method of producing oxadiazole compounds” (Ricoh Company, Ltd., priority 1992, dated 1995).

Columns and labels:
[1] = Electroluminescent device (ITO / stilbene derivative (5) electroluminescent layer / oxadiazole electron-transporting layer / Mg-Ag), Application Examples III-1 to III-5
[2] = Electroluminescent device (ITO / stilbene derivative (20) hole-transporting luminescent layer / electron-transporting layer / Mg-Ag), Examples I-6, I-9, Comparative I-1, I-2
[3] = Electroluminescent device with diamine derivative (37) hole-transporting layer and Al electrode, preserved at room temperature, Application Example II-1 and Comparative Example II-1
[4] = Electroluminescent device (ITO / compound (22) hole-transporting luminescent layer / electron-transporting layer / Mg-Ag), Example I-8
[5] = Three-layered electroluminescent device (ITO / triphenyl amine (19) / compound (26) electroluminescent layer / electron-transporting layer varied / Mg-Ag), Examples I-11, I-23 to I-34, Comparative I-3 to I-5
[6] = Electroluminescent device (ITO / compound (25) hole-transporting luminescent layer / electron-transporting layer / Mg-Ag), Example I-10
[7] = constant current 30 mA/cm^2, one hour
[8] = stilbene derivative (20) luminescent layer

In the case of c1ccc(-c2ccc(-c3nnc(-c4ccc(CCc5ccc(-c6nnc(-c7ccc(-c8ccccc8)cc7)o6)cc5)cc4)o3)cc2)cc1 [(III-1-A)], the “color of light emission” value ([1]; drive voltage of 20 V or less) is reported as “clear blue light” and the “drive voltage at which light was emitted” value ([1]; electron-transporting layer material) is reported as at most 20 V.
For FC(F)(F)C(c1ccc(-c2nnc(-c3ccc(-c4ccccc4)cc3)o2)cc1)(c1ccc(-c2nnc(-c3ccc(-c4ccccc4)cc3)o2)cc1)C(F)(F)F [compound 78], the Luminance ([2]; 12.5 V, current density of 100 mA/cm^2) was 2000 cd/m^2, the “luminance after continuous driving for one hour” value (from here on “luminance … for one hour”) [2, 7] was 100 cd/m^2 and the Voltage ([2]; current density of 100 mA/cm^2) was 12.5 V. The “color of light emission” value [2, 8] was “clear green light emission”, the emission wavelength peak [2, 8] was 515 nm and the Luminance ([3]; 25 V, 50 mA/cm^2) was 400 cd/m^2. For the same compound, the “color of light emission” value ([3]; 25 V, 50 mA/cm^2) was “clear white light emission”, the “emission wavelength peak (first)” value ([3]; 25 V, 50 mA/cm^2) was 537 nm and the “emission wavelength peak (second)” value ([3]; 25 V, 50 mA/cm^2) was 407 nm. The drive voltage ([3]; current density of 50 mA/cm^2) was 25 V, the “light emission after preservation” value ([3]; room temperature, one month) was “the same clear light emission was observed” and the Luminance ([4]; 20 V, 10 mA/cm^2) was 40 cd/m^2. For the same compound, the “color of light emission” value ([4]; 20 V, 10 mA/cm^2) was “clear blue light emission”, the emission wavelength peak ([4]; 20 V, 10 mA/cm^2) was 464 nm and the Voltage ([4]; current density of 10 mA/cm^2) was 20 V. The Luminance ([5]; 6.4 V, 30 mA/cm^2, Example I-11) was 640 cd/m^2, the “luminance … for one hour” value [5, 7] was 300 cd/m^2 and the direct voltage ([5]; current density of 30 mA/cm^2, Example I-11) was 6.4 V. The emission wavelength peak ([5]; electron-transporting layer material varied) was 475 nm, the “drive voltage after continuous driving for one hour” value ([6]; 30 mA/cm^2, one hour) was 24 V and the “luminous efficiency with time” value ([6]; 30 mA/cm^2, one hour) was “luminous efficiency was increased with time”. For the same compound, the “luminance … for one hour” value ([6]; 30 mA/cm^2, one hour, drive voltage of 24 V) was 215 cd/m^2 and the Luminance ([6]; initial, constant current 30 mA/cm^2) was 8 cd/m^2.

Some compounds share one wording; it may come from a single statement.
